Source: article PMC7575552
These are yes or no findings as the source states them, for the method shown. Binding seen in cells or lysates may run through a third protein. Some results given as binding are weak or reduced against the parent protein; the word gives no strength.

Chains of the proteins cited; added tags and fusions are not shown. Lines headed by an entry give the natural chain unless they say otherwise; changes in a name come on top.
UniProt P63017: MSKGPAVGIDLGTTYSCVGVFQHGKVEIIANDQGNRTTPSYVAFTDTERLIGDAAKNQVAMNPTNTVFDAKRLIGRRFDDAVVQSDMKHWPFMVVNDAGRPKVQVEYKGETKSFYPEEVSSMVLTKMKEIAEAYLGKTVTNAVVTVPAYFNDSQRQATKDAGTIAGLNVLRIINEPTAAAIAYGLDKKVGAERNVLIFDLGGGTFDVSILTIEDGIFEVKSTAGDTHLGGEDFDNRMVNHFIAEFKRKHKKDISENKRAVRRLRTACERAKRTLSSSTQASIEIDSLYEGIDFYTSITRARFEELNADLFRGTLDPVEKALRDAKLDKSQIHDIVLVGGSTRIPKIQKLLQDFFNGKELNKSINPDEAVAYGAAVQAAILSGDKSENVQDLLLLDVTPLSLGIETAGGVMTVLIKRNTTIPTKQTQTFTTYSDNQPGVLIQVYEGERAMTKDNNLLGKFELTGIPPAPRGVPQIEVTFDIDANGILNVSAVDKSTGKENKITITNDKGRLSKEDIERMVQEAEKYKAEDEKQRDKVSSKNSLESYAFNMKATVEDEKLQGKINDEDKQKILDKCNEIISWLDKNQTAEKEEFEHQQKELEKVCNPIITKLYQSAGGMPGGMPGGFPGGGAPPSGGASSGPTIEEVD
UniProt P63018: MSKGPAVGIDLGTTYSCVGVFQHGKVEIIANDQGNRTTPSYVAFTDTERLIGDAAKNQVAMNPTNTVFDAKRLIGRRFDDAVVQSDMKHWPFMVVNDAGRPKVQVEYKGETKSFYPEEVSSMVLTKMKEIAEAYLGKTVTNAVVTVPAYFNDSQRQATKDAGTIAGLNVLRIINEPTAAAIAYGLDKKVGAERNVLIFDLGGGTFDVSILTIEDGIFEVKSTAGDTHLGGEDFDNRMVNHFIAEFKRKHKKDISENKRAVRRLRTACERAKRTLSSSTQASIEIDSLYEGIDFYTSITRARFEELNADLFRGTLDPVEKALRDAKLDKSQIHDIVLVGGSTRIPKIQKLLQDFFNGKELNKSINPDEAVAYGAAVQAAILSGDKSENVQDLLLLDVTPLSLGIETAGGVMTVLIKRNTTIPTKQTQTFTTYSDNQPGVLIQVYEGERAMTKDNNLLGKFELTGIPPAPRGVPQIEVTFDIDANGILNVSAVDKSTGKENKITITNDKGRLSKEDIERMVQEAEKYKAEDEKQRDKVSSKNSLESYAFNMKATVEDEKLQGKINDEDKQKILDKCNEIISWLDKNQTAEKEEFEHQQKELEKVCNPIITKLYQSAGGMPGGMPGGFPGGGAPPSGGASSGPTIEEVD
UniProt Q9WUD1: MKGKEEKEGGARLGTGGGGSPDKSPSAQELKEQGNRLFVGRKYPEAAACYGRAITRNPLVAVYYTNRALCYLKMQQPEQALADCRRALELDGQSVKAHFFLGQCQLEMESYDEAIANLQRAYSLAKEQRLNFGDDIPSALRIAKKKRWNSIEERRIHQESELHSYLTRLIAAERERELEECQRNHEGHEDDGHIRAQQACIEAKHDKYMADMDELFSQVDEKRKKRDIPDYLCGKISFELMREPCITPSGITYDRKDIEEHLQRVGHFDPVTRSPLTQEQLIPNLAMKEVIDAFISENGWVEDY

What was measured:
[1] = biological target: Hsc70, endogenous in mouse heart (mouse (endogenous in heart)) (UniProt P63017); test: co-IP; mouse heart lysate, mPDE5A/oe mice and littermate controls, with and without MI; Hsc70 as bait, detection with CHIP and Hsc70 antibodies
[2] = biological target: Hsc70, endogenous in neonatal rat cardiomyocytes (rat (endogenous in neonatal rat cardiomyocytes)) (UniProt P63018); test: co-IP; lysate of neonatal rat cardiomyocytes expressing Myc-tagged WT, S20E or S20A CHIP, with or without simulated ischemia; Hsc70 as bait, Myc-CHIP detected
[3] = biological target: Myc-tagged CHIP (carboxyl terminus of Hsc70-interacting protein), expressed in HEK293 cells (UniProt Q9WUD1); test: co-IP; Myc-tagged CHIP expressed in HEK293 cells as bait; PKG1α detected by blot; three bead washes

For “CHIP, endogenous in mouse heart (from UniProt Q9WUD1 1-304)”, the binding [1] was “binds”.

In the case of “Myc-tagged CHIP S20E, adenovirus-expressed in neonatal rat cardiomyocytes (from UniProt Q9WUD1 1-304)”, the binding [2] is reported as “binds”.

“Myc-tagged CHIP WT, adenovirus-expressed in neonatal rat cardiomyocytes (from UniProt Q9WUD1 1-304)” was tested, and the binding [2] was “binds”.

B1: Protein kinase G 1 alpha (PKG1α), in HEK293 cells (enzyme, UniProt Q13976 1-671)
chain: MSELEEDFAKILMLKEERIKELEKRLSEKEEEIQELKRKLHKCQSVLPVPSTHIGPRTTRAQGISAEPQTYRSFHDLRQAFRKFTKSERSKDLIKEAILDNDFMKNLELSQIQEIVDCMYPVEYGKDSCIIKEGDVGSLVYVMEDGKVEVTKEGVKLCTMGPGKVFGELAILYNCTRTATVKTLVNVKLWAIDRQCFQTIMMRTGLIKHTEYMEFLKSVPTFQSLPEEILSKLADVLEETHYENGEYIIRQGARGDTFFIISKGTVNVTREDSPSEDPVFLRTLGKGDWFGEKALQGEDVRTANVIAAEAVTCLVIDRDSFKHLIGGLDDVSNKAYEDAEAKAKYEAEAAFFANLKLSDFNIIDTLGVGGFGRVELVQLKSEESKTFAMKILKKRHIVDTRQQEHIRSEKQIMQGAHSDFIVRLYRTFKDSKYLYMLMEACLGGELWTILRDRGSFEDSTTRFYTACVVEAFAYLHSKGIIYRDLKPENLILDHRGYAKLVDFGFAKKIGFGKKTWTFCGTPEYVAPEIILNKGHDISADYWSLGILMYELLTGSPPFSGPDPMKTYNIILRGIDMIEFPKKIAKNAANLIKKLCRDNPSERLGNLKNGVKDIQKHKWFEGFNWEGLRKGTLTPPIIPSVASPTDTSNFDSFPEDNDEPPPDDNSGWDIDF
For B1, the binding [3] was “binds”.
